Where “and” joins values, the source holds several entries; their conditions need not be identical. Identical values can stand only once. Counter-ions that a name gives are not always drawn.

A short description of the series: Experimental velocity of a fragrance ingredient from model powder detergent in water (olfactory detection at 60 cm). The conditions noted are these: Table 2, Class 2 ingredients, 10 g model powder detergent in 2 liters of water, 25° C., dosed at 0.005 to 0.1 wt %.
For `C=CCCC(=O)C(=C)C1CCCCC1` [2-cyclohexyl-1,6-heptadien-3-one], the “EV (Experimental velocity)” value fell in the range of 5 to 8 cm/s. In the case of `C=CCCC(=O)C1=CC(C)(C)CCC1` [1-(3,3-dimethyl-1-cyclohexen-1-yl)-4-penten-1-one], the “EV (Experimental velocity)” value is on record as 5.5 cm/s. Then `CC1=CCC2CC1C2(C)C` (stereo not shown) [2,6,6-trimethylbicyclo[3.1.1]hept-2-ene], with 6 cm/s; and `CC1=CCC(/C=C/C(C)(C)C(C)O)C1(C)C` (stereo not shown) [(E)-3,3-dimethyl-5-(2,2,3-trimethylcyclopent-3-en-1-yl)pent-4-en-2-ol], with 5.1 cm/s; and `CCOC(=O)C(C)C` [ethyl isobutyrate], with 5.2 cm/s. Then `CC1CCC2C(C)(C)C3CC12CC1OC(C)(C)OC13C` (stereo not shown) [2,2,5,8,8,9a-hexamethyloctahydro-3aH-4a,9-methanoazuleno[5,6-d][1,3]dioxole], with 6 cm/s; and `COc1ccc2ccccc2c1` [2-methoxynaphthalene], with 6 cm/s; and `CCc1ccc(CC(C)(C)C=O)cc1` [3-(4-ethylphenyl)-2,2-dimethylpropanal], with 6 cm/s. To `CC/C=C(\C)C(O)CCCCC` (stereo not shown) [(E)-4-methyldec-3-en-5-ol] belongs 7 cm/s; to `C=C(C)C1CC=C(C)CC1` (stereo not shown) [1-methyl-4-(prop-1-en-2-yl)cyclohex-1-ene], 7 cm/s and 5.2 cm/s. As for `C/C=C/CCCCCCCC=O` [(E)-undec-9-enal], the “EV (Experimental velocity)” value was found to be 7 cm/s.

For `CCCCCCCCCCC=O` [undecanal], the “EV (Experimental velocity)” value is 6 cm/s. Then `CCC/C=C/CCCCC=O` [(E)-dec-6-enal], with 8 cm/s; and `CC(C)(C)[C@@H]1CCCC[C@@H]1O` [(1S,2S)-2-(tert-butyl)cyclohexan-1-ol], with 6 cm/s; and `CC(C)C1CCC(CS)C(S)C1` (stereo not shown) [para menthane-2,7-dithiol], with 5 cm/s.

In the case of `CCCCCCCCCCCC#N` [dodecanenitrile], the “EV (Experimental velocity)” value is listed as 6 cm/s.

On to `CCCCCCC=CC#N` [2-nonenenitrile], for which the “EV (Experimental velocity)” value was found to be 6 cm/s. To `CC(=O)/C=C/C1=C(C)CCCC1(C)C` [(E)-4-(2,6,6-trimethylcyclohex-1-en-1-yl)but-3-en-2-one] belongs 7 cm/s. To `CC1CCC2(CCC(=O)O2)CC1` (stereo not shown) [8-methyl-1-oxaspiro(4.5)decan-2-one] belongs 5 to 8 cm/s; to `CC1=CCC(/C=C/C(C)C(C)O)C1(C)C` (stereo not shown) [(E)-3-methyl-5-(2,2,3-trimethylcyclopent-3-en-1-yl)pent-4-en-2-ol], 6 cm/s. To `O=CC=Cc1ccccc1` [cinnamaldehyde] belongs 7 cm/s. For the compound `C=CC(C)(CCC=C(C)C)OC(C)=O` (stereo not shown) [3,7-dimethylocta-1,6-dien-3-yl acetate], the “EV (Experimental velocity)” value is reported as 6 cm/s. To `CC(O)COCC(C)O` (stereo not shown) [1,1′-oxybis(propan-2-ol)] belongs 8 cm/s and 6 cm/s; to `CC1=CC2CC(C=O)C1CC2C(C)C` (stereo not shown) [8-isopropyl-6-methylbicyclo[2.2.2]oct-5-ene-2-carbaldehyde], 6 cm/s. To `CC(=O)OCCC(C)CCC=C(C)C` (stereo not shown) [3,7-dimethyloct-6-en-1-yl acetate] belongs 5.1 cm/s; to `COC(=O)c1ccccc1C` [methyl 2-methylbenzoate], 7 cm/s. To `CC(=O)Oc1ccc(C)cc1` [p-tolyl acetate] belongs 6 cm/s. Turning to `CC(C)=CCCC(C)C=O` (stereo not shown) [2,6-dimethylhept-5-enal], the “EV (Experimental velocity)” value turned out to be 8 cm/s. Then `CCCCCCC=CC=O` [Accord 2-nonenal, 2-nonenal], with 6 cm/s. On to `Cc1ccc(C(C)C)c(O)c1` [2-isopropyl-5-methylphenol], for which the “EV (Experimental velocity)” value came to 7 cm/s. Take `CCCCC/C=C/CCC=O` [trans 4-decen-1-al]: the “EV (Experimental velocity)” value was determined as 8 cm/s. Turning to `Cc1coc2ccc(O)cc12` [3-methylbenzofuran-5-ol], the “EV (Experimental velocity)” value was 5.3 cm/s. To `CCCCCCCCC(C)C=O` (stereo not shown) [2-methyl decanal] belongs 7 cm/s; to `CC(=O)/C(C)=C/C1C(C)=CCCC1(C)C` (stereo not shown) [(E)-3-methyl-4-(2,6,6-trimethylcyclohex-2-en-1-yl)but-3-en-2-one], 6 cm/s; to `C=CCCCCCCC/C=C/CC#N` [(E)-trideca-3,12-dienenitrile], 6 cm/s. To `CCCCCCCCCCCC=O` [dodecanal] belongs 6 cm/s; to `CCOc1cc(C)ccc1O` [2-ethoxy-4-methylphenol], 6 cm/s. To `C/C=C/c1ccc(OC)cc1` [(E)-1-methoxy-4-(prop-1-en-1-yl)benzene] belongs 6 cm/s; to `Cc1ncsc1CCO` [4-methyl-5-thiazoleethanol], 5 cm/s; to `COc1ccc(C=O)cc1` [4-methoxybenzaldehyde], 5.2 cm/s. Regarding `C=CC(C)(O)CCC=C(C)C` (stereo not shown) [3,7-dimethylocta-1,6-dien-3-ol], the “EV (Experimental velocity)” value came to 6 cm/s. To `CCCCCC=O` [hexanal] belongs 5.3 cm/s.

Consider `CC(=O)OCCc1ccccc1` [phenyl ethyl acetate], for which the “EV (Experimental velocity)” value was 7 cm/s. On to `O=CC[C@H]1C[C@H]2C[C@@H]1[C@@H]1CCC[C@H]21` [2-((3aR,4S,5R,7S,7aR)-octahydro-1H-4,7-methanoinden-5-yl)acetaldehyde], for which the “EV (Experimental velocity)” value amounted to 5.3 cm/s. To `CCCCCCCCCC/C=C/C#N` [(E)-tridec-2-enenitrile] belongs 6 cm/s; to `CC/C=C\CCOC(=O)OC` [(Z)-hex-3-en-1-yl methyl carbonate], 7 cm/s.

With `CCCCCC1CCCC1=O` (stereo not shown) [2-pentylcyclopentan-1-one], the “EV (Experimental velocity)” value is given as 7 cm/s. Then `CC(C=O)Cc1ccc(C(C)(C)C)cc1` (stereo not shown) [3-(4-(tert-butyl)phenyl)-2-methylpropanal], with 6 cm/s; and `CC1=CCC(C(C)(C)S)CC1` (stereo not shown) [para menth-1-ene-8-thiol], with 6 cm/s.

In the case of `CC1=C[C@@H](C)[C@@H](C=O)CC1` [(1S,2R)-2,4-dimethylcyclohex-3-ene-1-carbaldehyde], the “EV (Experimental velocity)” value is 8 cm/s. Regarding `CCCCCCCC=O` [octanal], the “EV (Experimental velocity)” value stood at 8 cm/s.

Take `CC(C)C(=O)OC1CC2CC1C1C=CCC21` (stereo not shown) [3a,4,5,6,7,7a-hexahydro-1H-4,7-methanoinden-5-yl isobutyrate]: the “EV (Experimental velocity)” value is given as 5.3 cm/s. To `CC1=CCC(=C(C)C)CC1` [1-methyl-4-(propan-2-ylidene)cyclohex-1-ene] belongs 8 cm/s. Consider `CC(CC=O)CC(C)(C)C` (stereo not shown) [3,5,5-trimethylhexanal], for which the “EV (Experimental velocity)” value was found to be 5.2 cm/s.

For the compound `CCCOC(C)OCCc1ccccc1` (stereo not shown) [(2-(1-propoxyethoxy)ethyl)benzene], the “EV (Experimental velocity)” value is 6 cm/s.

`O=CC1CC[C@H]2[C@@H]3CC[C@@H](C3)[C@@H]12` (stereo partly drawn) [(3aS,4R,7S,7aR)-octahydro-1H-4,7-methanoindene-1-carbaldehyde]: the “EV (Experimental velocity)” value was 6 cm/s.

Take `COC(=O)C=Cc1ccccc1` [3-phenyl 2-propenoic acid, methyl ester]: the “EV (Experimental velocity)” value stood at 8 cm/s.

On to `CC1=CCC(C(C)CC=O)CC1` (stereo not shown) [3-(4-methylcyclohex-3-en-1-yl)butanal], for which the “EV (Experimental velocity)” value stood at 6 cm/s.

On to `C=CCc1ccc(O)c(OC)c1` [4-allyl-2-methoxyphenol], for which the “EV (Experimental velocity)” value worked out at 5.04 cm/s. To `CC(C)=CCCC(C)CC#N` (stereo not shown) [3,7-dimethyloct-6-enenitrile] belongs 6 cm/s; to `CC(C)=CCC/C(C)=C/COC=O` [(E)-3,7-dimethylocta-2,6-dien-1-yl formate], 5.2 cm/s. For the compound `CC/C(C)=C\CC/C(C)=C\C#N` [(2Z,6Z)-3,7-dimethylnona-2,6-dienenitrile], the “EV (Experimental velocity)” value was 6 cm/s and 8 cm/s.

Turning to `CC(=O)CCc1ccccc1` [4-phenylbutan-2-one], the “EV (Experimental velocity)” value is listed as 7 cm/s. For the compound `CCC(=O)OC1CC2CC1C1C=CCC21` (stereo not shown) [3a,4,5,6,7,7a-hexahydro-1H-4,7-methanoinden-5-yl propionate], the “EV (Experimental velocity)” value is 6 cm/s.

Regarding 5-alkyldihydro-2(3H)-furanone, the “EV (Experimental velocity)” value is on record as 8 cm/s.

In the case of `CCCCCC1=C(C)CCC1=O` [3-methyl-2-pentylcyclopent-2-en-1-one], the “EV (Experimental velocity)” value was 6 cm/s. To `CC1(C)[C@@H]2CC[C@@]1(C)[C@H](O)C2` [(1R,2R,4R)-1,7,7-trimethylbicyclo[2.2.1]heptan-2-ol] belongs 7 cm/s; to `CC(=O)/C=C/C1C(C)=CCCC1(C)C` (stereo not shown) [(E)-4-(2,6,6-trimethylcyclohex-2-en-1-yl)but-3-en-2-one], 8 cm/s; to `CCCCCCCCC/C=C/C=O` [trans-2-dodecanal], 6 cm/s.

On to `c1ccc2[nH]ccc2c1` [Accord 1H-indole, 1H-indole], for which the “EV (Experimental velocity)” value amounted to 6 cm/s.

Source of the values: patent publication US11326126B2, “High performing, high impact bloom accord” (International Flavors & Fragrances Inc., priority 2016, dated 2022).
